Results are given in words; binding and its absence hold for the method and conditions named. Some entries that bind do so weakly or less than the wild type.
Key:
[1] = target: Human AXL-Strep-His (human) (UniProt P30530); assay: ELISA on coated Axl-Strep-His (Protocol 4)
[2] = target: Human AXL-Strep-His (human) (UniProt P30530); assay: human AXL ELISA after heating in PBS at 40 C for 60 hr
[3] = target: Human AXL-Strep-His (human) (UniProt P30530); assay: human AXL ELISA (Protocol 4), antibody untreated and after 60 hr at 40 °C in PBS, OD 450 nm
[4] = target: Human AXL-Strep-His (human) (UniProt P30530); assay: SPR, Axl-Strep-His antigen
[5] = target: Human AXL-Strep-His (human) (UniProt P30530); assay: ELISA on plate-coated human AXL-Strep-His (Protocol 4), OD 450 nm [panel A. Human Axl]

Amino acid sequences for entries named in this document (tags omitted). A change or cut given only in a name is not applied to a line headed by its entry.
UniProt P30530: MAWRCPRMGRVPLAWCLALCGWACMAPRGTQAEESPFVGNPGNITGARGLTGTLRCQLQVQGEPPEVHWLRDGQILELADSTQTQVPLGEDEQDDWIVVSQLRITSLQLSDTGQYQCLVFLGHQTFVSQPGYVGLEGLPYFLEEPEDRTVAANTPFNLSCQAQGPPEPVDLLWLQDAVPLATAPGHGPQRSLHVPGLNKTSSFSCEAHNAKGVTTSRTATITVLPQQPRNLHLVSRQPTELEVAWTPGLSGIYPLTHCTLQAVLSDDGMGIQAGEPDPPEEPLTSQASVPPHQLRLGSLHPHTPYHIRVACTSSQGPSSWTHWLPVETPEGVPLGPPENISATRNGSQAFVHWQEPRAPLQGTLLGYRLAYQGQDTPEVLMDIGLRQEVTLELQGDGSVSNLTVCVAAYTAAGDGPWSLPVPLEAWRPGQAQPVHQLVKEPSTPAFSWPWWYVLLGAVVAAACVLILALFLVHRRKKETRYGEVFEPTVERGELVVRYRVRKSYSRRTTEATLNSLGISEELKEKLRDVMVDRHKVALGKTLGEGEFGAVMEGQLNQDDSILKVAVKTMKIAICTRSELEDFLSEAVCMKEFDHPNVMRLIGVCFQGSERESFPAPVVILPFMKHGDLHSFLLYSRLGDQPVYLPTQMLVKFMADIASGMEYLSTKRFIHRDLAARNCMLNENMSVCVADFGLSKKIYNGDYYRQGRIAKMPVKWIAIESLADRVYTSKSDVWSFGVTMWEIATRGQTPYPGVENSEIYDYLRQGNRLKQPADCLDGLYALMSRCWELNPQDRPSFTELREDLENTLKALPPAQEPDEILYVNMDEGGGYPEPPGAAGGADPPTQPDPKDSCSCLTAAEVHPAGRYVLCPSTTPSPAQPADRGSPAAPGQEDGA

Measured: binding

B1: Ab1 (antibody, V domains shown)
VH: EVQLVESGGDLVKPGGSLKLSCAASGFTFSSYGMSWVRQTPDKRLEWVATISSGGSYTYYPDSVKGRFTISRDNAKNTLYLQMSSLKSEDTAMYYCARHPIYYTYDDTMDYWGQGTSVTVSS
VL: ENVLTQSPAIMAASPGEKVTMTCSASSSVSSGNFHWYQQKPGTSPKLWIYRTSNLASGVPARFSGSGSGTSYSLTISSMEAEDAATYYCQQWSGYPWTFGGGTKLEIK
binds: [1] | [2] | [3]

B2: Ab5 (antibody, V domains shown)
VH: EVQLVESGGGLVQPGGSLRLSCAASGFTFSSYGMSWVRQAPGKGLEWVATISSGGSYTYYPDSVKGRFTISRDNAKNSLYLQMNSLRAEDTAVYYCARHPIYYTYDDTMDYWGQGTLVTVSS
VL: EIVLTQSPGTLSLSPGERATLSCSASSSVSSGNFHWYQQKPGLAPRLLIYRTSNLASGIPARFSGSGSGTDFTLTISSLEPEDFAVYYCQQWSGYPWTFGGGTKLEIK
binds: all assays above

From US20190352407A1
